Some of the results follow.
Compound: C1=CC=C(C=C1)C2=NC(=C(N2)C3=CC=NC=C3)C4=CC(=C(C=C4)Cl)O
Assay: log2 fold change, soluble protein after heating vs DMSO (PISA); higher = thermal stabilisation; K562 cells, 10 uM, 30 min; active = over 0.2 and 3.5 SD of the protein, either way, in both replicates (recomputed)
Method in brief: (§1)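 K562 cells at 2×10^6 cells/mL were exposed to 10 μM compound for 30 min, then aliquots were heated for 3 min across 48°C-58°C, pooled, and extracted in PBS containing 0.5% NP-40 at 4°C. The supernatant after 21,000xg for 90 min was taken as soluble protein and measured by TMTpro 16plex LC-MS/MS with channel sums equalised. Thermal stability is reported relative to control samples, with values from duplicates. Fold changes are given on a log2 scale.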

Chains of the proteins cited; added tags and fusions are not shown. Lines headed by an entry give the natural chain unless they say otherwise; changes in a name come on top.
UniProt Q96S44: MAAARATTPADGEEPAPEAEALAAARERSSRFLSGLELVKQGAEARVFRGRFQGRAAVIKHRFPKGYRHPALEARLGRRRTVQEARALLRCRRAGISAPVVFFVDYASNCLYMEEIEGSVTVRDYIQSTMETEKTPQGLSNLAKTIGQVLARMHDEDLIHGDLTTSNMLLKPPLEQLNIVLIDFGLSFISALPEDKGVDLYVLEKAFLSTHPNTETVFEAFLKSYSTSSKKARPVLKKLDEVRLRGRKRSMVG
UniProt O60704: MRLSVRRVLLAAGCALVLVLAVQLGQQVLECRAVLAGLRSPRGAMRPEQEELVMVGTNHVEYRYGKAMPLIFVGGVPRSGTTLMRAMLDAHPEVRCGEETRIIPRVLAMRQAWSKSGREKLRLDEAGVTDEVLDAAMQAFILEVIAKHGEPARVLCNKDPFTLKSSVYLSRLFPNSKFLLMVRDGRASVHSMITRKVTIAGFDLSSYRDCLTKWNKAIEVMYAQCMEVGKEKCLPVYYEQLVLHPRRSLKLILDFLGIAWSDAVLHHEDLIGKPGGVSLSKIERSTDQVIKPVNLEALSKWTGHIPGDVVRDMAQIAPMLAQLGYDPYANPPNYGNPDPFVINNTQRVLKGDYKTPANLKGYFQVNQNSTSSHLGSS
UniProt Q9NUP7: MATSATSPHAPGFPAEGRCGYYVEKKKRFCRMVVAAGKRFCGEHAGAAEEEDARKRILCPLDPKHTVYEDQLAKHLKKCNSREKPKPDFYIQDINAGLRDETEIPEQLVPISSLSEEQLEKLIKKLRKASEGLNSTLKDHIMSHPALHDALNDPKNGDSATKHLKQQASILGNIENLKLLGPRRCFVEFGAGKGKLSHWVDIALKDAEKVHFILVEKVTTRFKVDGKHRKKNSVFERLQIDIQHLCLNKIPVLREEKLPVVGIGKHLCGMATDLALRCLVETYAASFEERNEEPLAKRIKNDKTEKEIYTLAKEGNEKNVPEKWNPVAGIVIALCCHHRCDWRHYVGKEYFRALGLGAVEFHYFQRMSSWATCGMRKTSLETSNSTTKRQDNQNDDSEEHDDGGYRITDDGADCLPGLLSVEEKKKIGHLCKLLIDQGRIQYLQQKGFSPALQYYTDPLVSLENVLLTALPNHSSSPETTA
UniProt P29144: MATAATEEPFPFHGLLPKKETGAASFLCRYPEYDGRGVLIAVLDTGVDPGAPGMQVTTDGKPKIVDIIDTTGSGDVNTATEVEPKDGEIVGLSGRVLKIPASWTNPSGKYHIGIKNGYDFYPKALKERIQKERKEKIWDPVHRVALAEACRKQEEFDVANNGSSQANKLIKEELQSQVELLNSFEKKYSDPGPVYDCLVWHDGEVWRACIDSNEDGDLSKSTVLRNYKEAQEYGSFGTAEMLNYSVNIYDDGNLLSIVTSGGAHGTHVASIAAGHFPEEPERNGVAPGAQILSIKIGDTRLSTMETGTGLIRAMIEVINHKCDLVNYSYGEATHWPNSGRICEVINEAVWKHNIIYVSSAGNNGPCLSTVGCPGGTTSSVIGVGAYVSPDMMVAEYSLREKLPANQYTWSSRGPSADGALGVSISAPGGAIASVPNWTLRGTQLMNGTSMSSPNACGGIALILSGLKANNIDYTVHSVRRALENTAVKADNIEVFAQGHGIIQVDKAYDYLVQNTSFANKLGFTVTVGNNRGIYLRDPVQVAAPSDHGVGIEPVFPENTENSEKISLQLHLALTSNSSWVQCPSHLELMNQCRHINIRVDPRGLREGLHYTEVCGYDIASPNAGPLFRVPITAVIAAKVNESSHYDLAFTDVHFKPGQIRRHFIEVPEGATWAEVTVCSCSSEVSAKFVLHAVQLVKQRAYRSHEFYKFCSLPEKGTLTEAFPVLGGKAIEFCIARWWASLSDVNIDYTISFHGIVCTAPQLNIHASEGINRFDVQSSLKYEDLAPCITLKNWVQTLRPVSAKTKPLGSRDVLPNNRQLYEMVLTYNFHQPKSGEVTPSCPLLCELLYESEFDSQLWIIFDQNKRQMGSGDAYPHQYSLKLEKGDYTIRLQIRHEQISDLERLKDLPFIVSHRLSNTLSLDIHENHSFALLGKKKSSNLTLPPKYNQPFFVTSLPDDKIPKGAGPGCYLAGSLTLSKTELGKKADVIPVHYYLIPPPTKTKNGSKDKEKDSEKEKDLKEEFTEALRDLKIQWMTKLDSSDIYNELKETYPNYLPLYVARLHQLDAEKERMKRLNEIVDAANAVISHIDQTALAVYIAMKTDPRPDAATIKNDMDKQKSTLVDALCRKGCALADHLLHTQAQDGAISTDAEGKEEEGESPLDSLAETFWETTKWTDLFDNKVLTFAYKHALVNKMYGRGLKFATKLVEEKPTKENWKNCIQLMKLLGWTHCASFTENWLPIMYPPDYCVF
UniProt P20333, whole entry, looked up: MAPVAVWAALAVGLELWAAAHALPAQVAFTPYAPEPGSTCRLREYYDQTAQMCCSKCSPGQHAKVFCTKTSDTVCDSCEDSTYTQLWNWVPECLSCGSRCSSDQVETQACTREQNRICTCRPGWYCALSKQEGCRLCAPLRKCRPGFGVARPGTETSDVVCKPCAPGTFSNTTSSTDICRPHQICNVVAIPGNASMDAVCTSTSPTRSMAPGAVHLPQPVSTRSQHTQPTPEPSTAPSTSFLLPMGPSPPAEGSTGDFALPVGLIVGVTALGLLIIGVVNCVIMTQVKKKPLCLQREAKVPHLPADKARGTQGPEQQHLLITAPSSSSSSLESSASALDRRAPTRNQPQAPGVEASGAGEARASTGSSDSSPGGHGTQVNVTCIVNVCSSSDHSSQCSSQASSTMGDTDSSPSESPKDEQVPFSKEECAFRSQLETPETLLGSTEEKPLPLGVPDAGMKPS
UniProt Q8WW01: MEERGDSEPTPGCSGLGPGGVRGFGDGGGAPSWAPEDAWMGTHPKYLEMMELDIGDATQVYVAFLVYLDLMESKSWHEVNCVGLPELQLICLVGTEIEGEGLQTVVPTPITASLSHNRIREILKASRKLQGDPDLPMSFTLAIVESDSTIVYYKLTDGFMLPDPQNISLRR
UniProt Q9UJA5: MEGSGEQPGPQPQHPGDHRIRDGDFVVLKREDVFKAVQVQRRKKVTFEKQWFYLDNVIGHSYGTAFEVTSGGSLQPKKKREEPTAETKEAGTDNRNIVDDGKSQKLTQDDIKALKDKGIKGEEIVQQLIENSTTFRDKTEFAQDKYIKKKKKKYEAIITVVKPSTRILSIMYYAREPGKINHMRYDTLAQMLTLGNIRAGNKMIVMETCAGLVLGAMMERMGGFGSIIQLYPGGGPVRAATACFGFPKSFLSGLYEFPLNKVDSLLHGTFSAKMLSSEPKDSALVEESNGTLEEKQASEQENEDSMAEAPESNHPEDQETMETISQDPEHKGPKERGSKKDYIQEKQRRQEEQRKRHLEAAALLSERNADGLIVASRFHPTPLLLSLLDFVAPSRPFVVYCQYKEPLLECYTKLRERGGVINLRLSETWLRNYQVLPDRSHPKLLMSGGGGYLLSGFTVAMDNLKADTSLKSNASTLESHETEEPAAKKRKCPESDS
UniProt Q9NS69: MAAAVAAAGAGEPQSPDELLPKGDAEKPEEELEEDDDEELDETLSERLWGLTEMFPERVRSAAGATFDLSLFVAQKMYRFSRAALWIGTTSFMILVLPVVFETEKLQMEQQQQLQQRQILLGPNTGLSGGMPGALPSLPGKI
UniProt Q14258, whole entry, looked up: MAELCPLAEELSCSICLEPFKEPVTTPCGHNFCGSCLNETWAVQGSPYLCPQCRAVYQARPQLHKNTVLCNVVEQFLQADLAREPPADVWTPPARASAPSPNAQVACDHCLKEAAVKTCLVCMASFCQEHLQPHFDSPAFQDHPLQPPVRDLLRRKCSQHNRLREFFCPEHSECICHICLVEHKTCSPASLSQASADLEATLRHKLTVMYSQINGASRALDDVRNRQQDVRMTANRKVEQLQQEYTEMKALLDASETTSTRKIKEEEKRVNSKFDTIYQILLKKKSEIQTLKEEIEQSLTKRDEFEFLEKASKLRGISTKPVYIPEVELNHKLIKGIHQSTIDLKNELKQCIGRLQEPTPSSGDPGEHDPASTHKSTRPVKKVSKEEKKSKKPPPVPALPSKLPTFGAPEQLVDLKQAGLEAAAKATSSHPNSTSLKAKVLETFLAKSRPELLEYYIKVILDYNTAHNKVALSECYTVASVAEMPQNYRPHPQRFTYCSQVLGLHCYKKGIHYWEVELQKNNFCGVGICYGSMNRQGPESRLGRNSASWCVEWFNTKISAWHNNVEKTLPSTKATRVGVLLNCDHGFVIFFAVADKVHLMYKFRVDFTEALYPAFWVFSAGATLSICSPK
UniProt Q7Z4G4: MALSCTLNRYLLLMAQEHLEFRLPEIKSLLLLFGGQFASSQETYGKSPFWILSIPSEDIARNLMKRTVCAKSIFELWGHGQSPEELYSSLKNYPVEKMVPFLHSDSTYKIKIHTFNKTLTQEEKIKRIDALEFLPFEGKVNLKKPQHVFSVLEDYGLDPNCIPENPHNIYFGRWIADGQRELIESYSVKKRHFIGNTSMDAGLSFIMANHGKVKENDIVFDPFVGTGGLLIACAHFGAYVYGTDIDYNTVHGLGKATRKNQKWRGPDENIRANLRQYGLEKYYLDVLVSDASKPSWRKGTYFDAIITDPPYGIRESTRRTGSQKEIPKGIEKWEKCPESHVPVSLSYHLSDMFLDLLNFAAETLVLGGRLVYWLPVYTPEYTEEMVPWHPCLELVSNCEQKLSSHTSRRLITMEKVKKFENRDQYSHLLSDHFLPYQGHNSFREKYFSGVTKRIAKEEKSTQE
UniProt Q8NFQ8: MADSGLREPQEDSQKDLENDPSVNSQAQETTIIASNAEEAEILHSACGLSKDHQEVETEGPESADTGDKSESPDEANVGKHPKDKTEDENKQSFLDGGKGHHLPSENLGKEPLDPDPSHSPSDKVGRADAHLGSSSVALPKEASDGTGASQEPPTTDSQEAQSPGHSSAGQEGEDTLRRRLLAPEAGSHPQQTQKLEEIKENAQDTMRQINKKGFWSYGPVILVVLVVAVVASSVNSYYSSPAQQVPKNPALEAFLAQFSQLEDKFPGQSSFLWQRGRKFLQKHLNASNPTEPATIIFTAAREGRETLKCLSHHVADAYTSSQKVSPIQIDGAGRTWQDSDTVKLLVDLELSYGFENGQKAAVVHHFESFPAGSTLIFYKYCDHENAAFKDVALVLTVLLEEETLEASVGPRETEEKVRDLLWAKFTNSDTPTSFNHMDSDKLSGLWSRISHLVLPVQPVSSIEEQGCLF
UniProt Q9Y5S1: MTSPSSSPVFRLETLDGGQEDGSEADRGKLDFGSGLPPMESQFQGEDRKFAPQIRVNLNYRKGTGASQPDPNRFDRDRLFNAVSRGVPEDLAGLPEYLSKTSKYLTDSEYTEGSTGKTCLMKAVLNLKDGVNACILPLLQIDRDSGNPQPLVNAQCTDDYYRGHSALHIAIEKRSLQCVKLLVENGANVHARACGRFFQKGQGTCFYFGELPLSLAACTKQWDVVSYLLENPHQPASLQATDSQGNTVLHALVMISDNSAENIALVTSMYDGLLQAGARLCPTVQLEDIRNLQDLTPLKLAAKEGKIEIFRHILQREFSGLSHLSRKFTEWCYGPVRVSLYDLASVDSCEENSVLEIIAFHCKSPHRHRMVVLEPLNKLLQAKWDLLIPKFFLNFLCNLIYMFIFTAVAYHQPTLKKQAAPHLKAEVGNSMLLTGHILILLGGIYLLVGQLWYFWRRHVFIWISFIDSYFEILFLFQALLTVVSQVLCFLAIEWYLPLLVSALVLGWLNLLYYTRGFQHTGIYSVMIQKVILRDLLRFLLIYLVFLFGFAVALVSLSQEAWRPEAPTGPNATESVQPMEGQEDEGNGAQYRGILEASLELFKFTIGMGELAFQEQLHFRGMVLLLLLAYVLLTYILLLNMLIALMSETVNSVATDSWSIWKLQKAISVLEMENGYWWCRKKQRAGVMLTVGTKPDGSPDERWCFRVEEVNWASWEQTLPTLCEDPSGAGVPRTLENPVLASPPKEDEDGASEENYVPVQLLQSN
UniProt Q5JU69: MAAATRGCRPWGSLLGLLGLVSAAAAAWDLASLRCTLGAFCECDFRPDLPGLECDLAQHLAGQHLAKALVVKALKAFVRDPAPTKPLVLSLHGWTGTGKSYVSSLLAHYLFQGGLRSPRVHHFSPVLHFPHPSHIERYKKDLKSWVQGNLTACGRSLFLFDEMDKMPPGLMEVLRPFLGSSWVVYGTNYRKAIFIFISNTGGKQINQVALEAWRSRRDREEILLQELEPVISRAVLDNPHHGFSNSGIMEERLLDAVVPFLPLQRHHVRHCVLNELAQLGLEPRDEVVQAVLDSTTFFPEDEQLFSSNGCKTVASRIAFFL
UniProt P60174, whole entry, looked up: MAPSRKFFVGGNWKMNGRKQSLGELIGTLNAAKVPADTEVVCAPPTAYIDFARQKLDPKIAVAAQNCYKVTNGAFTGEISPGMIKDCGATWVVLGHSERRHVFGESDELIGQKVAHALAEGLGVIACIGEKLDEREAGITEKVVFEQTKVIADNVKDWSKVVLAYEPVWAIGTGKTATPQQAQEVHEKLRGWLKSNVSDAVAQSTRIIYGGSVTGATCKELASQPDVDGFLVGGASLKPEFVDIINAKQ

log2 fold change, inactive:
TP53RK (UniProt Q96S44) 0, TOR4A (UniProt Q9NXH8) 0.093, TRIM56 (UniProt Q9BRZ2) -0.017, TRAPPC5 (UniProt Q8IUR0) 0.045, TPST2 (UniProt O60704) 0.004, TRMT13 (UniProt Q9NUP7) -0.126, TPP2 (UniProt P29144) -0.001, TNFRSF1B (UniProt P20333) 0.053, TSC22D4 (UniProt Q9Y3Q8) -0.011, TSC22D2 (UniProt O75157) -0.114, TSEN15 (UniProt Q8WW01) 0.039, TRMT6 (UniProt Q9UJA5) -0.053, TOMM22 (UniProt Q9NS69) 0.086, TRAPPC10 (UniProt P48553) -0.017, TRIM25 (UniProt Q14258) -0.052, TPM3 isoform 2 (UniProt P06753) -0.009, TRAPPC12 (UniProt Q8WVT3) 0.054, TRMU (UniProt O75648) 0.01, TP53BP2 isoform 3 (UniProt Q13625) 0.024, TRMT11 (UniProt Q7Z4G4) 0.019, TOR1AIP2 (UniProt Q8NFQ8) -0.014, TPM3 isoform 4 (UniProt P06753) -0.05, TRPV2 (UniProt Q9Y5S1) 0.037, TPM1 (UniProt H7BYY1) -0.048, TPCN1 isoform 3 (UniProt Q9ULQ1) 0.08, TOR2A (UniProt Q5JU69) 0.064, TRIP4 (UniProt Q15650) -0.025, TOR1AIP1 isoform 3 (UniProt Q5JTV8) 0.027, TOR1A (UniProt O14656) -0.019, TPI1 (UniProt P60174) -0.02, TRIR (UniProt Q9BQ61) -0.057, TOP2B (UniProt Q02880) 0.05

Compound: C1=CC=C2C(=C1)C3=NNC4=CC=CC(=C43)C2=O
Assay: as above
Method in brief: as §1

log2 fold change, inactive:
TP53RK (UniProt Q96S44) 0.024, TOR4A (UniProt Q9NXH8) 0.043, TRIM56 (UniProt Q9BRZ2) -0.063, TRAPPC5 (UniProt Q8IUR0) 0.003, TPST2 (UniProt O60704) 0.049, TRMT13 (UniProt Q9NUP7) -0.025, TPP2 (UniProt P29144) 0.123, TNFRSF1B (UniProt P20333) -0.048, TSC22D4 (UniProt Q9Y3Q8) -0.007, TSC22D2 (UniProt O75157) 0.013, TSEN15 (UniProt Q8WW01) -0.156, TRMT6 (UniProt Q9UJA5) -0.079, TOMM22 (UniProt Q9NS69) 0.036, TRAPPC10 (UniProt P48553) -0.008, TRIM25 (UniProt Q14258) 0.01, TPM3 isoform 2 (UniProt P06753) 0.049, TRAPPC12 (UniProt Q8WVT3) -0.01, TRMU (UniProt O75648) -0.036, TP53BP2 isoform 3 (UniProt Q13625) 0.045, TRMT11 (UniProt Q7Z4G4) 0.019, TOR1AIP2 (UniProt Q8NFQ8) -0.031, TPM3 isoform 4 (UniProt P06753) -0.086, TRPV2 (UniProt Q9Y5S1) -0.04, TPM1 (UniProt H7BYY1) -0.023, TPCN1 isoform 3 (UniProt Q9ULQ1) 0.071, TOR2A (UniProt Q5JU69) -0.066, TRIP4 (UniProt Q15650) 0.057, TOR1AIP1 isoform 3 (UniProt Q5JTV8) -0.065, TOR1A (UniProt O14656) 0.013, TPI1 (UniProt P60174) 0.004, TRIR (UniProt Q9BQ61) 0.015, TOP2B (UniProt Q02880) 0.017

Compound: C1CCN(C1)C(=O)NC2=CC=CC(=C2)NC3=NC=C(C(=N3)NCCC4=CN=CN4)Br
Assay: as above
Method in brief: as §1

log2 fold change, inactive:
TP53RK (UniProt Q96S44) -0.014, TOR4A (UniProt Q9NXH8) -0.021, TRIM56 (UniProt Q9BRZ2) 0.013, TRAPPC5 (UniProt Q8IUR0) 0.031, TPST2 (UniProt O60704) -0.02, TRMT13 (UniProt Q9NUP7) -0.013, TPP2 (UniProt P29144) -0.095, TNFRSF1B (UniProt P20333) 0.02, TSC22D4 (UniProt Q9Y3Q8) -0.032, TSC22D2 (UniProt O75157) -0.017, TSEN15 (UniProt Q8WW01) -0.058, TRMT6 (UniProt Q9UJA5) 0.12, TOMM22 (UniProt Q9NS69) -0.003, TRAPPC10 (UniProt P48553) 0.05, TRIM25 (UniProt Q14258) -0.09, TPM3 isoform 2 (UniProt P06753) 0.078, TRAPPC12 (UniProt Q8WVT3) -0.057, TRMU (UniProt O75648) -0.003, TP53BP2 isoform 3 (UniProt Q13625) -0.007, TRMT11 (UniProt Q7Z4G4) -0.033, TOR1AIP2 (UniProt Q8NFQ8) 0.01, TPM3 isoform 4 (UniProt P06753) 0.078, TRPV2 (UniProt Q9Y5S1) -0.066, TPM1 (UniProt H7BYY1) 0.032, TPCN1 isoform 3 (UniProt Q9ULQ1) -0.033, TOR2A (UniProt Q5JU69) -0.063, TRIP4 (UniProt Q15650) 0.012, TOR1AIP1 isoform 3 (UniProt Q5JTV8) -0.015, TOR1A (UniProt O14656) 0.006, TPI1 (UniProt P60174) 0.022, TRIR (UniProt Q9BQ61) 0.039, TOP2B (UniProt Q02880) 0.104

Reference: the supplement of paper PMC10849652
